# Test results: PubChem BioAssay (EPA / NIEHS)
# Amino acid sequences for entries named in this document (tags omitted). A change or cut given only in a name is not applied to a line headed by its entry.
# UniProt P03372, whole entry, looked up: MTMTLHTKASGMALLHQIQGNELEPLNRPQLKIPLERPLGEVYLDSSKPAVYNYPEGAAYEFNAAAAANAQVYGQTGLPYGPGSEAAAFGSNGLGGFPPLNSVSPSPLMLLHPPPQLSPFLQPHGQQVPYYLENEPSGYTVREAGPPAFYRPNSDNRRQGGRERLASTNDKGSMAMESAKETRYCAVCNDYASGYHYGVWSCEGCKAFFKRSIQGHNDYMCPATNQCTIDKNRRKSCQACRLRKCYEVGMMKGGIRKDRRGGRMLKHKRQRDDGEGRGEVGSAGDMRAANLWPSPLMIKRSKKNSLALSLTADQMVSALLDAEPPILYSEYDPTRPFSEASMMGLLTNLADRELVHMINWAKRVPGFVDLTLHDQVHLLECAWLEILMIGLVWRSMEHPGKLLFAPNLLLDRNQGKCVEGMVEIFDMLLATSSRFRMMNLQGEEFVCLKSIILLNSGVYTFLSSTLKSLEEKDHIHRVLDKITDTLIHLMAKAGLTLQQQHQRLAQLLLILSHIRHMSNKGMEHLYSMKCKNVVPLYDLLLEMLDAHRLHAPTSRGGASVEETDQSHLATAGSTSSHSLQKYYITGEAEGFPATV
# UniProt P10275: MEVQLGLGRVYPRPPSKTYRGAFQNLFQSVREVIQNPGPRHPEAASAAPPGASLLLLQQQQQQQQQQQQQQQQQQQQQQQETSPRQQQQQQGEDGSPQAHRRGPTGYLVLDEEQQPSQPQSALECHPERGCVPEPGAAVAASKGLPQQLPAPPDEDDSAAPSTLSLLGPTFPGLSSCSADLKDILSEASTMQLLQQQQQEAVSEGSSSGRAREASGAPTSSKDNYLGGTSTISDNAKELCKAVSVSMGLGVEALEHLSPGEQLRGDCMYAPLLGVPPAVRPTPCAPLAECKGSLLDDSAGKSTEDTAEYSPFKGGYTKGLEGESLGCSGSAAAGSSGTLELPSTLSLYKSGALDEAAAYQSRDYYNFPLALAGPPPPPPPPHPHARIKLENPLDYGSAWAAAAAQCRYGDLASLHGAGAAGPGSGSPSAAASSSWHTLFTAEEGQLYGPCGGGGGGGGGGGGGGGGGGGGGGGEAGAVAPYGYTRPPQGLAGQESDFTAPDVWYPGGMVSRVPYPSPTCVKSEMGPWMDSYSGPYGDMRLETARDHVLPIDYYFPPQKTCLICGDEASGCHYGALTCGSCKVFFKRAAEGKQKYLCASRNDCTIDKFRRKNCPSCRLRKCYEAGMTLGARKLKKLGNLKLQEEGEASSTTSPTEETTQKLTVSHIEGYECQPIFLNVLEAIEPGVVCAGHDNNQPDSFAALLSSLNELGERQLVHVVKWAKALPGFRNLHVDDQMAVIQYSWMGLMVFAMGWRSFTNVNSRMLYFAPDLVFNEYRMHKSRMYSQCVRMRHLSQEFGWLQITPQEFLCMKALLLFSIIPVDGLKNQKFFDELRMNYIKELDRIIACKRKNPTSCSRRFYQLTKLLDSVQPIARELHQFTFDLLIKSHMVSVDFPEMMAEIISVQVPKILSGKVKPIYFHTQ
# UniProt Q05941, whole entry, looked up: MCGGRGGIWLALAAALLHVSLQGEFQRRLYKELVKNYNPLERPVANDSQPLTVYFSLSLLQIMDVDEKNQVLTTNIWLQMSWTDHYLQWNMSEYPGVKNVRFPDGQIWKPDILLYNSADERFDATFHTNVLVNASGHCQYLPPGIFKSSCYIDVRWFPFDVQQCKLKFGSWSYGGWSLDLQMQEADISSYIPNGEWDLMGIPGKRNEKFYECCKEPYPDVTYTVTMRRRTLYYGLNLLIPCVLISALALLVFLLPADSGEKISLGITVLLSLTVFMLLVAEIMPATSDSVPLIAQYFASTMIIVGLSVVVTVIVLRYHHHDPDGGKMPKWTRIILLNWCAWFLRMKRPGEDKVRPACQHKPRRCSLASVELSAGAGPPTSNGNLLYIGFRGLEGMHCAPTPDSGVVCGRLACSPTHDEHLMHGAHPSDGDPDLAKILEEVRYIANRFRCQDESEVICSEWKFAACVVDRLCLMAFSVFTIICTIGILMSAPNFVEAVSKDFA
# UniProt P42575: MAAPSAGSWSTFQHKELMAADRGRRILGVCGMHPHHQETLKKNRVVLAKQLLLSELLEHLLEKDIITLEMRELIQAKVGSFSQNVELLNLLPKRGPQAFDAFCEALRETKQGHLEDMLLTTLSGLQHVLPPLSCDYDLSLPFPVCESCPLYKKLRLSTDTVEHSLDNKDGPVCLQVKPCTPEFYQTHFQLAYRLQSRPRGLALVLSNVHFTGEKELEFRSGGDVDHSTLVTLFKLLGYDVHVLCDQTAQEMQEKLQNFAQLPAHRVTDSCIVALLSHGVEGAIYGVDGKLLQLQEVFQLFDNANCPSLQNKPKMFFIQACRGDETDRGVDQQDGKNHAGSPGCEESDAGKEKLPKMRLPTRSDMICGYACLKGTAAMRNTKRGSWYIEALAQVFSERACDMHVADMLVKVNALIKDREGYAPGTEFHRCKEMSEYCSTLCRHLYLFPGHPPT
# UniProt P14780: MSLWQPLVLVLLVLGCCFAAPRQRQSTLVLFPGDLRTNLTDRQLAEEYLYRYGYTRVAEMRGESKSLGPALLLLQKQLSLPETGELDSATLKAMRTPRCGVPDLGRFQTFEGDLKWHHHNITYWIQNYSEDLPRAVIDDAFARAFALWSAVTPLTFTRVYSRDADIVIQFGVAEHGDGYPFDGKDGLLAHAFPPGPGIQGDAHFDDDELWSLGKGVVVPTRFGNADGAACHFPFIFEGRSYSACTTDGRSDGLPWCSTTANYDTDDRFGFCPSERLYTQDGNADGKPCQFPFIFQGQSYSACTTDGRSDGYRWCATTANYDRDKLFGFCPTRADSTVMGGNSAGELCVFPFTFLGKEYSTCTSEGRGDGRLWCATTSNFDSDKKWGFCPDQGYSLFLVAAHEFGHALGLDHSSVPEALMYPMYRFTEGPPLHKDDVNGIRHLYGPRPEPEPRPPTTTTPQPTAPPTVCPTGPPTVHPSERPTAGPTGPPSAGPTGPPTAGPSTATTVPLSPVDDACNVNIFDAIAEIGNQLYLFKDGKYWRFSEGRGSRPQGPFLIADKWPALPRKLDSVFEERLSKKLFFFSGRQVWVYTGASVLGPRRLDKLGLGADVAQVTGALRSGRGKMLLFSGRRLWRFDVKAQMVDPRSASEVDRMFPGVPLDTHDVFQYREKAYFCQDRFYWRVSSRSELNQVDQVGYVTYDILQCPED
# UniProt P29074: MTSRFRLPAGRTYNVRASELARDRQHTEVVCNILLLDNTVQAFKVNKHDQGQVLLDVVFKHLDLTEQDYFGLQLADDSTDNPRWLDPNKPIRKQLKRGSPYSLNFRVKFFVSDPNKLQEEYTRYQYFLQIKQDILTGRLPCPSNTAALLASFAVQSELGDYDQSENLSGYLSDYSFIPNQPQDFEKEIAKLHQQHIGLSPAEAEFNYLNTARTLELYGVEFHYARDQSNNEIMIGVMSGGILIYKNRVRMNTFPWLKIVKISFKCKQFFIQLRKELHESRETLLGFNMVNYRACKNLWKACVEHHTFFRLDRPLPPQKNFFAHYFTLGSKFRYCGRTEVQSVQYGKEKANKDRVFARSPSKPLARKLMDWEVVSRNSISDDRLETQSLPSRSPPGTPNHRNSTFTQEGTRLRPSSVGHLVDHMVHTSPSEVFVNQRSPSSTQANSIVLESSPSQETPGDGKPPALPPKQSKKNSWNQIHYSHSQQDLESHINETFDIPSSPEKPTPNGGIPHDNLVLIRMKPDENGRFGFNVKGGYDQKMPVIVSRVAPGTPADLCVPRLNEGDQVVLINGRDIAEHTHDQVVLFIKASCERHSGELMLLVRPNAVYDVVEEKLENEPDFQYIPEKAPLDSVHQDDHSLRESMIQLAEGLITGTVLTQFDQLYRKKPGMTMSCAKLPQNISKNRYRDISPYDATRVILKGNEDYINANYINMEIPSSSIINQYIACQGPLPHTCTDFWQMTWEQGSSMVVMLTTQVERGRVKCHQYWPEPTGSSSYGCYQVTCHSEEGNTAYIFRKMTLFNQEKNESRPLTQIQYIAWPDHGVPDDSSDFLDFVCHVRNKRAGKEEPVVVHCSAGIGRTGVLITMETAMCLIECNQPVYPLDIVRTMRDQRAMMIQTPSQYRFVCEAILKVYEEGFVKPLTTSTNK
# UniProt Q12923: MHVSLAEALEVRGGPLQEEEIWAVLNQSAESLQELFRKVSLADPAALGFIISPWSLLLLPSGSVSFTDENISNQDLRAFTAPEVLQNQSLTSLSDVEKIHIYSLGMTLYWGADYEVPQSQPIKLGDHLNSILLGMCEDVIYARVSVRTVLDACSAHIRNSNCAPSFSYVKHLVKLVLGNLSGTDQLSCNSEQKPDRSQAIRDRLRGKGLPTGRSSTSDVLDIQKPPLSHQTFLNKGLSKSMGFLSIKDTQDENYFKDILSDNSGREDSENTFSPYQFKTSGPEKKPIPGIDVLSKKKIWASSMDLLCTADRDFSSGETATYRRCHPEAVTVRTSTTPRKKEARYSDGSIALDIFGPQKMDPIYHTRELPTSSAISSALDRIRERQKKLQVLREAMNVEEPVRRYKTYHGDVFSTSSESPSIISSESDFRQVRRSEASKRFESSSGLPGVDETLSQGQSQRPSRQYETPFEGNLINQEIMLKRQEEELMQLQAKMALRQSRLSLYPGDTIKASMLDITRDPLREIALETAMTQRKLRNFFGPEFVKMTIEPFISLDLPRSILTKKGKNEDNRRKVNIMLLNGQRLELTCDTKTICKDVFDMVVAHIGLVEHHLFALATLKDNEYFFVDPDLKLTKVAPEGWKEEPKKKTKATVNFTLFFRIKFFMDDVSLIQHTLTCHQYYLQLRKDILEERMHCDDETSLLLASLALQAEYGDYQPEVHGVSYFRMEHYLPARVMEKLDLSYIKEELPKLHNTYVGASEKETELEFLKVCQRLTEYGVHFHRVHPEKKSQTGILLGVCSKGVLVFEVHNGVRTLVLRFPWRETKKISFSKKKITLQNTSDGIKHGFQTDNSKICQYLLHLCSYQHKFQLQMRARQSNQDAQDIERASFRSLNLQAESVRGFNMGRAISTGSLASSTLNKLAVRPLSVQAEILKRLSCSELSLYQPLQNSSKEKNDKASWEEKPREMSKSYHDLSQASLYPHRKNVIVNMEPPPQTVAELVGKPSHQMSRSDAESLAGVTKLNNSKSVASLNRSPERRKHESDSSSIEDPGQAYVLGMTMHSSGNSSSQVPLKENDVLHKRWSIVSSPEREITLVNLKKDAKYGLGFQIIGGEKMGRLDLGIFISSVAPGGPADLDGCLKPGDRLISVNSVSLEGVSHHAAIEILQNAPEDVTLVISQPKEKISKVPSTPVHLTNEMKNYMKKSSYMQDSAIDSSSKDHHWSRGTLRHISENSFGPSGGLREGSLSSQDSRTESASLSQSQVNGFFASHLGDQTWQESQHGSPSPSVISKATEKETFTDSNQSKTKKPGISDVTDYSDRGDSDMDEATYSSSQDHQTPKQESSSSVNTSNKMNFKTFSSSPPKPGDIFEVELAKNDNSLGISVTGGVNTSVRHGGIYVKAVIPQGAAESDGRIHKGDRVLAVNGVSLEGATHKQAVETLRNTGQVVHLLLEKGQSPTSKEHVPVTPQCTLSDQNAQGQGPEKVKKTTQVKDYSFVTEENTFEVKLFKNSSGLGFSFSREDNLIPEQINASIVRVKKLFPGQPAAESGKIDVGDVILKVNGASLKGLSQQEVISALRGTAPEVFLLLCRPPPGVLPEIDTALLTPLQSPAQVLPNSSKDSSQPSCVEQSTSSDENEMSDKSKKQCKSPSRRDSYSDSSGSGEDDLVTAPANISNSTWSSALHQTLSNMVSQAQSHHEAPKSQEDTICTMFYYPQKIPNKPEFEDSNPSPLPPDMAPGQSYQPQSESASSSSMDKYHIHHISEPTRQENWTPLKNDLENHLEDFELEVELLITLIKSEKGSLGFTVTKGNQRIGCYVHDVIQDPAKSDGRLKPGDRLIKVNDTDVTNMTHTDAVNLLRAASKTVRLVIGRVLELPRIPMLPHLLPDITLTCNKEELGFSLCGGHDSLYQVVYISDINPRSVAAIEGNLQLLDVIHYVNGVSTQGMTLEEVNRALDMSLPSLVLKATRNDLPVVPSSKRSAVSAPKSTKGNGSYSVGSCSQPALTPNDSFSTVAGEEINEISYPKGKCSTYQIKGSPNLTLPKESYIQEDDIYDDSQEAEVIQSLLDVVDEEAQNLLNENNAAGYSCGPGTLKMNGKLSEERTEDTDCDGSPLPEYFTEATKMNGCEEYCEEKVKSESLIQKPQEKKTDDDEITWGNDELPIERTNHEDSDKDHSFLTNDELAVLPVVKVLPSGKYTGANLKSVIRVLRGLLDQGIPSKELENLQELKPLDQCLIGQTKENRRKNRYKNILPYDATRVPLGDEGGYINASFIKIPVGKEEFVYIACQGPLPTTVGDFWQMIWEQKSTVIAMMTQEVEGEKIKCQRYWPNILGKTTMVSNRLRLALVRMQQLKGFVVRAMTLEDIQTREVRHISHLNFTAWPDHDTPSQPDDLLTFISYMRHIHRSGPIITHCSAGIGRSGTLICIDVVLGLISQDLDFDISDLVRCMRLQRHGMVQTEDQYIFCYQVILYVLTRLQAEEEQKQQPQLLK
# Several values for one entry are separate records, joined by “and”; a condition that tells them apart may be missing. Equal entries are not always repeated. This list was built around the results that the source calls inconclusive (neither active nor inactive); the mix of calls is not that of the screen. For some assays here: Potencies beside an inconclusive call are fits to weak or partial responses and may not hold up. Some compounds were tested as several samples or in several runs, with calls that do not always agree. Activity calls are given as the source filed them. The calls were made as follows: active = hit-call score of the fitted dose curve at least 0.9, where 1 is the maximum; inconclusive = response in the unintended direction; inactive = score below 0.9.
# Experiments:
# [1] = molecular target: human Norepinephrine Transporter (NET), SLC6A2 (gene 6530) (UniProt P23975); assay: NVS_TR_hNET: NovaScreen (NVS) Transporter Assay for human Norepinephrine Transporter (NET) (AID 2283377);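 also: cell-free membrane protein extracted from CHO cells expressing human NET; displacement of radioligand from human NET seen as loss of scintillation signal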
# In short: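 Single-concentration duplicate screen at 25 uM, then concentration-response for actives; displacement of specific radioligand from human NET in CHO membrane extracts, filter-based scintillation detection at 1 h relative to DMSO.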
# [2] = molecular target: Estrogen receptor (Homo sapiens) (UniProt P03372); assay: NVS_NR_hER: NovaScreen (NVS) Nuclear Receptor Binding Assay for human Estrogen Receptor (ER) (AID 2283348)
# In short: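 Cell-free MCF7-derived ER preparation, specific radioligand displaced by test compound, read by scintillation counting 18 h post-dosing. Duplicate single-point 25 uM screen, then concentration-response confirmation; DMSO baseline.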
# [3] = molecular target: Ratio of Nucleoli Translocation and Cytoplasm, AR (gene 367) (UniProt P10275); assay: UPITT_HCI_U2OS_AR_TIF2_Nucleoli_Cytoplasm_Ratio_Antagonist: University of Pittsburgh U2OS Androgen Receptor-Transcriptional Intermediary Factor 2 (AR-TIF2) Antagonism High Content Imaging Assay for Ratio of Nucleoli Translocation and Cytoplasm (AID 2283999);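 also: antagonists lower the DHT-driven ratio of nucleolar to cytoplasmic red signal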
# In short: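 Compounds were added to U2OS cells carrying red-fluorescent AR and green-fluorescent TIF2, first at 20 uM, with hits confirmed in triplicate and titrated from 0.195 to 50 uM. Nucleolar versus cytoplasmic AR-RFP fluorescence was then quantified by imaging, with analysis relative to DHT.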
# [4] = molecular target: rat Neonicotinoid receptor (NNR), Chrna7 (gene 25302) (UniProt Q05941); assay: NVS_LGIC_rNNR_BungSens: NovaScreen (NVS) Ligand-Gated Ion Channel Assay for rat Neonicotinoid receptor (NNR) (AID 2283315)
# In short: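 Rat cortical membrane preparation incubated 2.5 h with tritiated or iodinated radioligand and test chemical. Bound radioactivity was filtered and counted by scintillation, and displacement was analysed against DMSO.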
# [5] = molecular target: human Caspase 2 (CASP2), CASP2 (gene 835) (UniProt P42575); assay: NVS_ENZ_hCASP2: NovaScreen (NVS) Enzymatic Assay for human Caspase 2 (CASP2) (AID 2283135)
# In short: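 Single-point duplicate testing at 25 uM preceded concentration series topping at 50 uM. Activity of the recombinant E. coli-derived protease was followed by fluorescent substrate cleavage 1 h post-dosing, relative to DMSO.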
# [6] = molecular target: human Vascular Endothelial Growth Factor Receptor 3 (VEGFR3), FLT4 (gene 2324) (UniProt P35916); assay: NVS_ENZ_hVEGFR3: NovaScreen (NVS) Enzymatic Assay for human Vascular Endothelial Growth Factor Receptor 3 (VEGFR3) (AID 2283229)
# In short: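 Chemicals first run in duplicate at 25 uM, with actives re-tested in concentration series to a top of 50 uM. Recombinant VEGFR3 activity measured after 1 h via fluorescence with mobility-shift product separation; inhibition fitted relative to DMSO.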
# [7] = molecular target: human Phosphodiesterase 10 (PDE10), PDE10A (gene 10846) (UniProt Q9Y233); assay: NVS_ENZ_hPDE10: NovaScreen (NVS) Enzymatic Assay for human Phosphodiesterase 10 (PDE10) (AID 2283195)
# In short: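 Fluorescence readout after mobility-shift separation of substrate and product, 1 h reaction with recombinant human enzyme. Single-concentration duplicates at 25 uM, then concentration-response up to 50 uM for chemicals reaching threshold; DMSO baseline.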
# [8] = molecular target: human Protein Tyrosine Phosphatase Receptor Type F (PTPRF), PTPRF (gene 5792) (UniProt P10586); assay: NVS_ENZ_hPTPRF: NovaScreen (NVS) Enzymatic Assay for human Protein Tyrosine Phosphatase Receptor Type F (PTPRF) (AID 2283213)
# In short: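 Cell-free fluorescence enzyme assay with recombinant protein and substrate; product separated by electrophoretic mobility shift. Read 1 h after dosing, single 25 uM duplicate screen, then concentration-response up to 50 uM; loss of signal vs DMSO.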
# [9] = molecular target: human Ephrin type-A Receptor 2 (EphA2), EPHA2 (gene 1969) (UniProt P29317); assay: NVS_ENZ_hEphA2: NovaScreen (NVS) Enzymatic Assay for human Ephrin type-A Receptor 2 (EphA2) (AID 2283155)
# In short: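 Enzyme activity of recombinant EphA2 read by fluorescence after mobility-shift separation, 1 h after dosing. Chemicals first tested at 25 uM (duplicate); those passing threshold run as concentration series, top 50 uM, single replicate, relative to DMSO.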
# [10] = molecular target: human Matrix Metalloproteinase-9 (MMP9), MMP9 (gene 4318) (UniProt P14780); assay: NVS_ENZ_hMMP9: NovaScreen (NVS) Enzymatic Assay for human Matrix Metalloproteinase-9 (MMP9) (AID 2283190);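 also: cell-free recombinant MMP9 protease activity read by fluorescent substrate signal; active means inhibition seen as loss of fluorescence signal versus DMSO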
# In short: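 Inhibition was scored as loss of fluorescence signal against DMSO controls. The recombinant protease was exposed to chemicals for 1 hour before reading; initial testing used 25 uM in duplicate.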
# [11] = molecular target: human Protein Tyrosine Phosphatase Non-receptor Type 4 (PTPN4), PTPN4 (gene 5775) (UniProt P29074); assay: NVS_ENZ_hPTPN4: NovaScreen (NVS) Enzymatic Assay for human Protein Tyrosine Phosphatase Non-receptor Type 4 (PTPN4) (AID 2283208)
# In short: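 Screened in duplicate at 25 uM, with hits then titrated to a top concentration of 50 uM. Recombinant Sf9-derived PTPN4 turnover was read by fluorescence with electrophoretic separation, 1.33 h after compound addition. DMSO served as baseline.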
# [12] = molecular target: human Protein Tyrosine Phosphatase Receptor Type B (PTPRB), PTPRB (gene 5787) (UniProt P23467); assay: NVS_ENZ_hPTPRB: NovaScreen (NVS) Enzymatic Assay for human Protein Tyrosine Phosphatase Receptor Type B (PTPRB) (AID 2283211)
# In short: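 Recombinant human PTPRB with a fluorescent substrate, product separated by electrophoretic mobility shift; read 1 h after dosing. Primary screen in duplicate at 25 uM; actives then retested in concentration series; loss of signal versus DMSO.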
# [13] = molecular target: human Muscarinic, M4 Receptor, CHRM4 (gene 1132) (UniProt P08173); assay: NVS_GPCR_hM4: NovaScreen (NVS) G Protein-Coupled Receptor Assay for human Muscarinic, M4 Receptor (AID 2283274)
# In short: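 Filter-based scintillation counting of radioligand bound to CHO-expressed human M4 preparations after 1 h; loss of signal fitted versus DMSO. Initial duplicate testing at 25 uM, concentration-response follow-up for actives.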
# [14] = system: zebrafish Estrogen Receptor (ER2a), gene 317734; assay: ATG_zfER2a_XSP2: Attagene TRANS-FACTORIAL Multi-Species (XSP2) HepG2 Assay for zebrafish Estrogen Receptor (ER2a) (AID 2283818);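 also: hits raise reporter mRNA so AC50 reflects activation of zebrafish ER2a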
# In short: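 Multiplexed trans-reporter readout: RT-PCR then capillary electrophoresis of reporter transcripts after 24 h compound treatment. Human HepG2 carries transfected zebrafish ER2a-Gal4 chimera; 3 nM 6-alpha-fluorotestosterone plus 1.5 nM norgestrel present. Induction scored against DMSO.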
# [15] = ATG_M_32_XSP2: Attagene TRANS-FACTORIAL Multi-Species (XSP2) HepG2 Assay for M19 Transcription Factor (Internal Marker) (AID 2283826)
# In short: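 HepG2 cells transiently transfected with GAL4-UAS reporter transcription units, dosed with compound for 24 h in presence of 3 nM 6-alpha-fluorotestosterone and 1.5 nM norgestrel; reporter mRNA quantified by RT-PCR, FAM labelling, HpaI digestion and capillary electrophoresis.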
# [16] = molecular target: human Caspase 4 (CASP4), CASP4 (gene 837) (UniProt P49662); assay: NVS_ENZ_hCASP4: NovaScreen (NVS) Enzymatic Assay for human Caspase 4 (CASP4) (AID 2283143)
# In short: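 Compounds were first tested in duplicate at 25 uM, and hits were titrated singly to a 50 uM maximum. Recombinant protease from E. coli was read by fluorescence 2 h post-dose, and activity loss was fitted against the DMSO baseline.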
# [17] = molecular target: Tyrosine-protein phosphatase non-receptor type 13 (Homo sapiens) (UniProt Q12923); assay: NVS_ENZ_hPTPN13: NovaScreen (NVS) Enzymatic Assay for human Protein Tyrosine Phosphatase Non-receptor Type 13 (PTPN13) (AID 2283205)
# In short: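 Screened first at a single 25 uM in duplicate; compounds passing the threshold (e.g. 30% inhibition) were rerun in concentration series, top 50 uM. Recombinant enzyme, fluorescent substrate, mobility-shift separation, 0.5 h read. Data fitted as inhibition relative to DMSO.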
# [18] = molecular target: human SRC Proto-Oncogene, Non-receptor Tyrosine Kinase (SRC), SRC (gene 6714) (UniProt P12931); assay: NVS_ENZ_hSRC: NovaScreen (NVS) Enzymatic Assay for human SRC Proto-Oncogene, Non-receptor Tyrosine Kinase (SRC) (AID 2283223)
# In short: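 Compounds passing 30% inhibition at 25 uM (duplicate) were titrated to a top concentration of 50 uM. Enzyme activity read by fluorescence with mobility-shift substrate/product separation after 1 h; DMSO baseline.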
# [19] = system: bovine Histamine 1 Receptor (H1), gene 281231; assay: NVS_GPCR_bH1: NovaScreen (NVS) G Protein-Coupled Receptor Assay for bovine Histamine 1 Receptor (H1) (AID 2283246)
# In short: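 Hits from a 25 uM duplicate primary screen were retested in concentration series (top 50 uM); binding measured as scintillation-counted displacement of radioligand from bovine cerebellar membranes after 1 h, normalised to DMSO.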
# [20] = molecular target: human Vasopressin 1A Receptor (V1A), AVPR1A (gene 552) (UniProt P37288); assay: NVS_GPCR_hV1A: NovaScreen (NVS) G Protein-Coupled Receptor Assay for human Vasopressin 1A Receptor (V1A) (AID 2283284)
# In short: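 Single-concentration duplicate screen at 25 uM, with concentration-response follow-up (top 50 uM) for actives. The assay measured displacement of a radioligand from human platelet-derived receptor after 1.5 h, detected by filtration and scintillation counting.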
smiles,measurement,setting,value
O=C(c1ccccc1)C(Cl)Cl,AC50,[1],inconclusive: 6.05 µM
OCC(c1ccc(Cl)cc1)c1ccc(Cl)cc1,AC50,[2],inconclusive: 25 µM
ClC1=C(Cl)[C@]2(Cl)[C@H]3[C@H]([C@H]4C=C[C@H]3C4)[C@@]1(Cl)C2(Cl)Cl,outcome,[2],inactive
CCCCCCCCc1ccc(O)cc1,outcome,[3],inactive
COS(=O)(=O)c1ccc(C)cc1,AC50,[4],inconclusive: 50 nM
CN(C)C(=S)S,AC50,[5],inconclusive: 12.1 µM
same,AC50,[6],inconclusive: 672 nM
COc1ccccc1N,outcome,[7],inactive
CCCCCCCCCCCCc1cccc(S(=O)(=O)O)c1,AC50,[8],inconclusive: 22.5 µM
CN(C)[C@@H]1C(=O)C(C(N)=O)=C(O)[C@@]2(O)C(=O)C3=C(O)c4c(O)cccc4[C@@](C)(O)[C@H]3[C@H](O)[C@@H]12,AC50,[5],active: 10.8 µM
same,AC50,[9],active: 7.61 µM
same,AC50,[10],inconclusive: 25 µM
same,AC50,[11],active: 12.1 µM
same,AC50,[12],active: 29.7 µM and active: 10.1 µM
same,AC50,[6],active: 6.44 µM and active: 3.42 µM and active: 969 nM
CC(C)(C)CC(C)(C)c1ccc(O)cc1,AC50,[13],inconclusive: 73.4 nM
same,outcome,[14],inactive
same,AC50,[15],inconclusive: 10 µM
S=C1NCCN1,outcome,[16],inactive
same,AC50,[17],inconclusive: 25 µM
same,AC50,[11],inconclusive: 0.123 µM
same,outcome,[8],inactive
same,AC50,[18],inconclusive: 25 µM
same,AC50,[19],inconclusive: 1.36 µM
same,AC50,[20],inconclusive: 45.3 µM
CCCCCCCCCCCCOS(=O)(=O)O,AC50,[9],active: 40.8 µM
c1ccc(-c2ccccc2)cc1,AC50,[20],inconclusive: 44.7 µM
same,AC50,[3],inconclusive: 50 µM
Oc1cc(Cl)c(Cl)cc1Cl,AC50,[15],inconclusive: 0.0363 µM

# Pulled one by one from the entries so far:
smiles,measurement,setting,value
CN(C)[C@@H]1C(=O)C(C(N)=O)=C(O)[C@@]2(O)C(=O)C3=C(O)c4c(O)cccc4[C@@](C)(O)[C@H]3[C@H](O)[C@@H]12,AC50,[6],active: 6.44 µM and active: 3.42 µM and active: 969 nM
c1ccc(-c2ccccc2)cc1,AC50,[3],inconclusive: 50 µM
